The list shows only some results of the screen, not a fair sample: it gathers tests that were run many times, whatever their T/C, doses with no T/C, and many T/C values between a quarter and a half above the control. Other doses and runs of a compound stand elsewhere. T/C: endpoint of the treated group in % of that of the vehicle group. Some entries give survivors of the animals treated and no T/C: the source files T/C as zero there, which appears to mark a toxic dose or a test without result, not a measured value. Some doses without a T/C left all or most animals alive at the check, yet need not have been tolerated: the source hardly ever lists a survival T/C far under the control, and the zero likely stands for such cases as well. Survivors were counted at the toxicity check, usually on the fifth day, unless a day is given; later deaths do not show. Schedules are NCI's codes, read here as Q, the interval in days (D) or hours (H), X, the number of doses. Signs of the kind (2×) stand for listed records that agree. For survival time, this PubChem deposit counts one and a half times the control or more as active, and values a quarter to a half above the control carry no call in these data; other NCI protocols may use other cut-offs. Some entries were tested several times; the values are given in rising order. Some T/C values are followed by the survivors on the day toxicity was checked, most often the fifth; where none is given, no animal had died by that day.

This test relates to BDF1 mice, B16 melanoma ip, median survival T/C. The experiment in a line: NCI In Vivo Anticancer Drug Screen. Data for tumor model B16 Melanoma (intraperitoneal) in B6D2F1 (BDF1) mice. As to conditions: T/C endpoint: median survival time, higher T/C = longer survival. The method, then: The antitumor activity of compounds was measured in mice bearing transplantable tumors. Survival or tumor size were measured and the results are expressed as the measurement made in the treated group (T) divided by the measurement made in the vehicle treated control group (C). The tumor model used in this assay is B16 Melanoma (intraperitoneal) in B6D2F1 (BDF1) mice

Where [1] appears, read: dose: 100.0 mg/kg/injection, schedule: Q01DX009 (ip), vehicle: Klucel (hydroxypropylcellulose) (HPC).
Where [2] appears, read: dose: 200.0 mg/kg/injection, schedule: Q01DX009 (ip), vehicle: Klucel (hydroxypropylcellulose) (HPC).
Where [3] appears, read: dose: 400.0 mg/kg/injection, schedule: Q01DX009 (ip), vehicle: Klucel (hydroxypropylcellulose) (HPC).
The mark [4] stands for this setting: dose: 50.0 mg/kg/injection, schedule: Q01DX009 (ip), vehicle: saline with Tween-80.
Setting [5] is: dose: 100.0 mg/kg/injection, schedule: Q01DX009 (ip), vehicle: saline with Tween-80.
Setting [6] is: dose: 200.0 mg/kg/injection, schedule: Q01DX009 (ip), vehicle: saline with Tween-80.
Setting [7] is: dose: 200.0 mg/kg/injection, schedule: Q01DX009 (ip), vehicle: saline.

With `CC(=O)C1=C(O)C2(O)C(=O)c3c(c(C)c4ccc(C)c(O)c4c3O)CC2C(N)C1=O` (stereo not given), the T/C by setting is: (dose: 30.0 mg/kg/injection, schedule: Q01DX009 (ip), vehicle: saline + alcohol) 127 % of control; (dose: 60.0 mg/kg/injection, schedule: Q01DX009 (ip), vehicle: saline + alcohol) 145 % of control. For the setting “dose: 120.0 mg/kg/injection, schedule: Q01DX009 (ip), vehicle: saline + alcohol”, the survivor count is reported as 2 of 10.

Consider `NC1c2cc(Cl)ccc2-c2c(Cl)cc(Cl)cc21` (stereo not given), for which the survivor count (dose: 800.0 mg/kg/injection, schedule: Q01DX009 (ip), vehicle: saline with Tween-80) was 5 of 6.

With `C=C(C)/C([O-])=N/[N+](C)(C)CC(O)CCCCCCCCCCCC` (stereo not given), the survivor count is given as 10 of 10 (dose: 100.0 mg/kg/injection, schedule: Q01DX001 (ip), vehicle: saline); 10 of 10 (dose: 200.0 mg/kg/injection, schedule: Q01DX001 (ip), vehicle: saline); 3 of 10 (dose: 400.0 mg/kg/injection, schedule: Q01DX001 (ip), vehicle: saline); 0 of 10 (dose: 800.0 mg/kg/injection, schedule: Q01DX001 (ip), vehicle: saline).

Take `CCOC(=O)/C(C(C)=O)=C(/O)c1ccc(OC(F)(F)C(F)Cl)cc1OC(F)(F)C(F)Cl.CCOC(=O)/C(C(C)=O)=C(/O)c1ccc(OC(F)(F)C(F)Cl)cc1OC(F)(F)C(F)Cl.[Cu]` (stereo not given): the survivor count is, setting by setting: (dose: 50.0 mg/kg/injection, schedule: Q01DX009 (ip), vehicle: Klucel (hydroxypropylcellulose) (HPC)) 10 of 10; under setting [1], 10 of 10; under setting [2], 3 of 10; under setting [3], 0 of 10.

Regarding `N=C(N)SCc1cccc([N+](=O)[O-])c1`, the survivor count under setting [1] is 7 of 10.

As to `O=C(OC1C(O)OC2COC(=O)c3cc(O)c(O)c(O)c3-c3c(cc(O)c(O)c3O)C(=O)OC2C1O)c1cc(O)c(O)c(O)c1` (stereo not given), the T/C (dose: 15.0 mg/kg/injection, schedule: Q01DX009 (ip), vehicle: saline) is 129 % of control. Besides, the survivor count (dose: 30.0 mg/kg/injection, schedule: Q01DX009 (ip), vehicle: saline) was 10 of 10.

In the case of `NNC(=O)NO`, the survivor count under setting [4] is on record as 10 of 10, the survivor count under setting [5] is on record as 10 of 10 and the survivor count under setting [6] was 10 of 10.

As to `CCOc1ccccc1NC(=O)CC(C)=O`, the survivor count under setting [3] was 7 of 10.

As for `Cc1ccc(CNc2ccc(C)cc2)cc1`, the survivor count under setting [3] is 10 of 10.

For `C=C(C)C12OC3(/C=C/C=C/CCCCC)OC1C1C4OC4(CO)C(O)C4(O)C(=O)C(C)=CC4C1(O3)C(C)C2OC(=O)c1ccccc1` (stereo not given), the survivor count by setting is: (dose: 0.5 micrograms/kg/injection, schedule: Q01DX009 (ip), vehicle: saline) 10 of 10; (dose: 1.0 micrograms/kg/injection, schedule: Q01DX009 (ip), vehicle: saline) 9 of 10; (dose: 1.9 micrograms/kg/injection, schedule: Q01DX009 (ip), vehicle: saline) 10 of 10; (dose: 3.8 micrograms/kg/injection, schedule: Q01DX009 (ip), vehicle: saline) 10 of 10; (dose: 7.5 micrograms/kg/injection, schedule: Q01DX009 (ip), vehicle: saline) 9 of 10; (dose: 15.0 micrograms/kg/injection, schedule: Q01DX009 (ip), vehicle: saline) 10 of 10. In addition, the survivor count (dose: 30.0 micrograms/kg/injection, schedule: Q01DX009 (ip), vehicle: saline) was 10 of 10.

Consider `Cc1c2cc[n+](C)c(C)c2cc2c1[nH]c1ccc(O)cc12`, for which the T/C runs as follows: (dose: 5.0 mg/kg/injection, schedule: Q04DX003 (ip), vehicle: water, evaluated on day 45) 131 % of control; (dose: 5.0 mg/kg/injection, schedule: Q04DX003 (ip), vehicle: water, evaluated on day 60) 126 % of control; (dose: 10.0 mg/kg/injection, schedule: Q04DX003 (ip), vehicle: water) 131 % of control. In addition, the survivor count is, setting by setting: (dose: 20.0 mg/kg/injection, schedule: Q04DX003 (ip), vehicle: water) 10 of 10 (2×); (dose: 40.0 mg/kg/injection, schedule: Q04DX003 (ip), vehicle: water) 10 of 10.

As to `NC(=S)Nc1cccc2ccccc12`, the survivor count runs as follows: under setting [4], 6 of 10; (dose: 75.0 mg/kg/injection, schedule: Q01DX009 (ip), vehicle: saline with Tween-80) 2 of 10.

In the case of `CC(C)CCC[C@@H](C)[C@H]1CC[C@H]2[C@@H]3CC=C4C[C@@H](O)CC[C@]4(C)[C@H]3CC[C@]12C`, the survivor count reads like this: (dose: 400.0 mg/kg/injection, schedule: Q01DX009 (ip), vehicle: other) 10 of 10; (dose: 800.0 mg/kg/injection, schedule: Q01DX009 (ip), vehicle: other) 10 of 10; (dose: 1600.0 mg/kg/injection, schedule: Q01DX009 (ip), vehicle: other) 10 of 10.

For `CCCn1cnc2c(=S)nc[nH]c21`, the survivor count is, setting by setting: under setting [5], 10 of 10; (dose: 150.0 mg/kg/injection, schedule: Q04DX003 (ip), vehicle: saline with Tween-80) 10 of 10; (dose: 300.0 mg/kg/injection, schedule: Q04DX003 (ip), vehicle: saline with Tween-80) 10 of 10; (dose: 600.0 mg/kg/injection, schedule: Q04DX003 (ip), vehicle: saline with Tween-80) 10 of 10.

For `C=C1CCN(c2ccc(F)cc2)C1=O`, the T/C (dose: 8.0 mg/kg/injection, schedule: Q01DX009 (ip), vehicle: saline + alcohol) was 125 % of control.

As for `COc1ccccc1NC(=O)c1cc2ccccc2cc1O`, the T/C under setting [7] is 128 % of control.

On to `NC(=S)N/N=C\c1nccc2c(N)cccc12`, for which the T/C (dose: 3.13 mg/kg/injection, schedule: Q01DX009 (ip), vehicle: saline) is 140 % of control [9 of 10 alive]; the T/C (dose: 6.25 mg/kg/injection, schedule: Q01DX009 (ip), vehicle: saline with Tween-80) is 129 % of control; the T/C (dose: 9.4 mg/kg/injection, schedule: Q04DX003 (ip), vehicle: saline) is 133 % of control [9 of 10 alive]; the T/C (dose: 12.5 mg/kg/injection, schedule: Q01DX009 (ip), vehicle: saline with Tween-80, evaluated on day 45) is 139 % of control; the T/C (dose: 12.5 mg/kg/injection, schedule: Q01DX009 (ip), vehicle: saline with Tween-80, evaluated on day 60) was 130 % of control; the T/C (dose: 25.0 mg/kg/injection, schedule: Q01DX009 (ip), vehicle: saline with Tween-80) is 140 and 146 % of control. The T/C under setting [4] is 141 % of control.

As for `CCCCCCCCCCCCO[P+](=O)OCCCCCCCCCCCC`, the survivor count is, setting by setting: under setting [7], 10 of 10; (dose: 400.0 mg/kg/injection, schedule: Q01DX009 (ip), vehicle: saline) 4 of 10; (dose: 600.0 mg/kg/injection, schedule: Q01DX009 (ip), vehicle: saline) 2 of 10; (dose: 800.0 mg/kg/injection, schedule: Q01DX009 (ip), vehicle: saline) 0 of 10.

Regarding `Cc1ccc(NC(=O)Oc2ccc(Br)cc2Br)c([N+](=O)[O-])c1`, the survivor count was 10 of 10 under setting [5]; 10 of 10 under setting [6]; 10 of 10 (dose: 400.0 mg/kg/injection, schedule: Q01DX009 (ip), vehicle: saline with Tween-80).

As for `CC(C(=O)O)C(NC(=O)OCc1ccccc1)C(=O)O` (stereo not given), the survivor count (dose: 400.0 mg/kg/injection, schedule: Q04DX003 (ip), vehicle: other) is 10 of 10.

For the compound `O=c1[nH]c2ccccc2n1C1CCN(CCCC(c2ccc(F)cc2)c2ccc(F)cc2)CC1`, the survivor count reads like this: under setting [2], 10 of 10; under setting [3], 10 of 10.

(Values after PubChem BioAssay AID192 (DTP/NCI, 2004).)
